Assay results as given in PubChem BioAssay AID624297 (National Center for Advancing Translational Sciences (NCATS), 2012).
The whole screen tested about 340,000 compounds, of which about 6,200 (1.8%) were called active. Inconclusive results, whose numbers are uncertain, are shown with a selection of clear calls. Calls follow the shape of the dose curve; as a rule, active = well fitted activation curve with a large enough effect; inconclusive = small, poorly fitted or top-dose-only effect; inactive = no such curve, though single readings can be large or run the other way. Potencies of inconclusive entries are doubtful fits and often do not repeat.

experiment: A quantitative high throughput screen for small molecules that induce DNA re-replication in SW480 colon adenocarcinoma cells.; also: nearly all actives have a fitted effect of over 55% in size; conditions: Hoechst DNA content imaging, 48 h; series mostly up to 46.1 µM
Source text: H Molecular Libraries Probe Production Network [MLPCN] NIH Chemical Genomics Center [NCGC] MLPCN Grant: Fast Track K99 CA136555 Assay Provider: Melvin DePamphilis, NICHD, NIH Assay Overview Eukaryotic cells normally restrict genome duplication to once per cell division. When this process is aberrant, DNA re-replication occurs when cells reinitiate DNA replication before the first round of replication is complete. DNA re-replication induces the DNA damage response, arrests cell proliferation, and triggers apoptosis. The cell cycle components cyclin A, Cdt-1, Cdc6 and geminin are critical regulators of this process and their misregulation results in DNA re-replication in normal and cancer cells. To identify compounds that induce re-replication in normal cells, an image-based assay was used to measure DNA content of nuclei, as detected by the fluorescent DNA binding dye, Hoechst. Cell nuclei were imaged by a fluorescence scanning plate imager and compounds that induce DNA re-replication were identified by the increase of nuclei with elevated fluorescence intensity
For screening, 250 cells in 5 uL/well were dispensed into black clear 1536-well plates (Aurora) using a solenoid-based dispenser. Following transfer of 23 nL compound or DMSO vehicle by a pin tool, the plates were incubated 48 hr at 37 C and 5% CO2. After addition of 1 uL/well Hoescht stain, the plates were incubated 40 min at 37 C, 5% CO2 and total intensity of fluorescent objects (nuclei) were enumerated by an Acumen Explorer Ex3 (TTP LabTech) fluorescence scanning plate imager (405 nm excitation, 500-530 nm emission). Keywords: NIH Roadmap, MLPCN, MLI, MLSMR, qHTS, NCGC, DNA replication, cancer
Potency is read from the fitted curve at half-maximal effect.

SMILES	Potency
COc1ccc(NC(=O)CNC(=O)C2CCCCC2)cc1OC	inactive
O=C(CCCN1CCC(O)(c2ccc(Cl)cc2)CC1)c1ccc(F)cc1	inactive
O=C(CCc1nc2ccccc2c(=O)[nH]1)Nc1ccc(F)cc1	inactive
Cc1onc(-c2ccccc2)c1-c1n[nH]c(=S)n1-c1ccccc1Cl	inactive
CC(C)CNC(=O)c1c(N)n(/N=C/c2ccccn2)c2nc3ccccc3nc12	inconclusive: 1.84 µM [activator, full curve]
COc1cc([N+](=O)[O-])ccc1NC(=O)N1CCCCCC1	inactive
CC(C)(C)CC(C)(C)NCC(=O)Nc1c2c(nc3ccccc13)CCC2	inactive
CSC1=NC(C(Cl)(Cl)Cl)N=C(c2ccc(C)cc2)N1 (stereo not given)	inconclusive: 0.58 µM [activator, full curve, poor fit]
O=C(O)c1cc(O)c2c(c1)C(=O)c1cc(O)cc(O)c1C2=O	inactive
CC(=O)Nc1ccc(C(=O)N/N=C(\C)CC(=O)Nc2ccc(OCc3ccccc3)cc2)cc1	inconclusive: 29.1 µM [activator, single point]
COc1ccc(CCNC(=O)COC(=O)CNS(=O)(=O)c2ccc(SC)c([N+](=O)[O-])c2)cc1	inconclusive: 29.1 µM [activator, single point]
COc1cc2nc(=S)n3[nH]c(COc4ccccc4C)nc3c2cc1OC	inactive
CCN(C(=O)COC(=O)/C(C#N)=C/c1ccc(OC)cc1)C1CCS(=O)(=O)C1 (stereo not given)	inconclusive: 0.82 µM [activator, full curve, poor fit]
O=C(O)C1OC(Oc2cc3oc(-c4ccccc4)cc(=O)c3c(O)c2O)C(O)C(O)C1O (stereo not given)	inconclusive: 29.1 µM [activator, single point]
O=c1cc2c(n[nH]1)CCCC2	inactive
CCC(C)[C@@H](C(=O)Nc1ccc2c(c1)OCO2)N1Cc2ccccc2C1=O (stereo not given in full)	inconclusive: 11.6 µM [activator, partial curve]
Cc1cc(C)cc(C(=O)Nc2ccc(N3CCN(C(=O)c4ccco4)CC3)cc2)c1	inconclusive: 18.4 µM [activator, partial curve, poor fit]
CC(=O)NC(c1ccco1)c1cc(Cl)c2ccccc2c1O (stereo not given)	inconclusive: 0.231 µM [activator, full curve, poor fit]
COc1ccc(-c2noc(CCC(=O)NC3CCCCCC3)n2)cc1	inconclusive: 0.164 µM [activator, full curve]
COc1ccc(-c2nc(N)nc(N)n2)c(O)c1	inconclusive: 29.1 µM [activator, single point]

Arranged by formula weight (ascending): three of the compounds above
SMILES	Potency
COc1cc([N+](=O)[O-])ccc1NC(=O)N1CCCCCC1	inactive
COc1ccc(-c2noc(CCC(=O)NC3CCCCCC3)n2)cc1	inconclusive: 0.164 µM [activator, full curve]
Cc1cc(C)cc(C(=O)Nc2ccc(N3CCN(C(=O)c4ccco4)CC3)cc2)c1	inconclusive: 18.4 µM [activator, partial curve, poor fit]
